Data: the supplement of paper PMC4604168 (melanoma cell lines)
The list shows a part of the results. Repeats are few or missing, and single values can be far off.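 Cells were imaged in 1,536-well plates, and nuclei stained with an antibody against cleaved PARP were counted against all DNA-stained nuclei to give the apoptosis fraction. Screening doses were chosen to leave most cells alive, and resting and induced cleaved-PARP levels differ strongly between cell lines.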

How the values were obtained:
Assay in all cases: cleaved PARP positive nuclei fraction relative to DMSO control; melanoma cells; higher = more apoptosis
Conditions in all cases: library dose: low library concentration; 72 h
501Mel = system: 501Mel
A101D = system: A101D
A2058 = system: A2058
A375 = system: A375
C32 = system: C32
CBRC008 = system: CBRC008 (line from a melanoma biopsy)
CBRC014 = system: CBRC014 (line from a melanoma biopsy)
CBRC016 = system: CBRC016 (line from a melanoma biopsy)
CBRC017 = system: CBRC017 (line from a melanoma biopsy)
CBRC034 = system: CBRC034 (line from a melanoma biopsy)
COLO792 = system: COLO792
COLO800 = system: COLO800
COLO829 = system: COLO829
G361 = system: G361
IPC-298 = system: IPC-298
IST-MEL1 = system: IST-MEL1
LB2518-MEL = system: LB2518-MEL
LOXIMVI = system: LOXIMVI
MEL-HO = system: MEL-HO

| Structure (SMILES) | cleaved PARP positive nuclei fraction (501Mel) | cleaved PARP positive nuclei fraction (A101D) | cleaved PARP positive nuclei fraction (A2058) | cleaved PARP positive nuclei fraction (A375) | cleaved PARP positive nuclei fraction (C32) | cleaved PARP positive nuclei fraction (CBRC008) | cleaved PARP positive nuclei fraction (CBRC014) | cleaved PARP positive nuclei fraction (CBRC016) | cleaved PARP positive nuclei fraction (CBRC017) | cleaved PARP positive nuclei fraction (CBRC034) | cleaved PARP positive nuclei fraction (COLO792) | cleaved PARP positive nuclei fraction (COLO800) | cleaved PARP positive nuclei fraction (COLO829) | cleaved PARP positive nuclei fraction (G361) | cleaved PARP positive nuclei fraction (IPC-298) | cleaved PARP positive nuclei fraction (IST-MEL1) | cleaved PARP positive nuclei fraction (LB2518-MEL) | cleaved PARP positive nuclei fraction (LOXIMVI) | cleaved PARP positive nuclei fraction (MEL-HO) |
| --- | --- | --- | --- | --- | --- | --- | --- | --- | --- | --- | --- | --- | --- | --- | --- | --- | --- | --- | --- |
| C[C@]1(O)C[C@@H](c2nc(-c3ccc4ccc(-c5ccccc5)nc4c3)c3c(N)nccn32)C1 + Nc1ncn([C@H]2C[C@H](O)[C@@H](CO)O2)c(=O)n1 [decitabine] (first compound 0.4 µM, partner dose 0.1 µM) | 48.7% | 98.8% | 60.6% | 358% | 141% | 174% | 124% | 33.5% | 52.9% | 67.7% | 29.7% | 152% | 96.4% | 134% | 59.1% | 137% | 80.1% | 45.3% | 136% |
| Cn1sc(=O)n(Cc2ccccc2)c1=O + NC(=O)c1ccc(N(C(N)=O)c2c(F)cccc2F)nc1-c1ccc(F)cc1F [VX702] (first compound 0.4 µM, partner dose 0.4 µM) | 102% | 110% | 107% | 166% | 75.4% | 79.8% | 107% | 196% | 81.9% | 89.4% | 125% | 73.4% | 96.8% | 96.5% | 158% | 260% | 38.5% | 83.4% | 77.5% |
| NC1(c2ccc(-c3nc4ccn5c(=O)[nH]nc5c4cc3-c3ccccc3)cc2)CCC1 + C=C(c1ccc(C(=O)O)cc1)c1cc2c(cc1C)C(C)(C)CCC2(C)C [Bexarotene] (first compound 0.4 µM, partner dose 2 µM) | 88.5% | 157% | 77.6% | 119% | 82.3% | 196% | 90.8% | 51.2% | 118% | 62.8% | 129% | 62.5% | 70.5% | 124% | 174% | 61.9% | 112% | 90.5% | 21.5% |
| Cn1sc(=O)n(Cc2ccccc2)c1=O + CS(=O)(=O)c1ccc(C(=O)Nc2ccc(Cl)c(-c3ccccn3)c2)c(Cl)c1 [vismodegib] (first compound 0.4 µM, partner dose 1 µM) | 133% | 40% | 80.5% | 97.9% | 71.2% | 79.7% | 106% | 37% | 428% | 90.4% | 145% | 63.3% | 78.9% | 84.3% | 44.5% | 62% | 188% | 39.6% | 74.5% |
| CCCCCCCCc1ccc(CCC(N)(CO)CO)cc1 [fingolimod] + Nc1ccn([C@@H]2O[C@H](CO)[C@@H](O)C2(F)F)c(=O)n1 [gemcitabine] (first compound 2 µM, partner dose 0.0004 µM) | 104% | 172% | 94.8% | 311% | 77.5% | 82.3% | 119% | 112% | 75.4% | 70.5% | 67.5% | 76% | 118% | 73.6% | 230% | 107% | 47.5% | 312% | 89.9% |
| CCN(CC)CCNC(=O)c1c(C)[nH]c(/C=C2\C(=O)Nc3ccc(F)cc32)c1C [sunitinib] + Nc1ncn([C@H]2C[C@H](O)[C@@H](CO)O2)c(=O)n1 [decitabine] (first compound 0.4 µM, partner dose 0.1 µM) | 109% | 121% | 292% | 261% | 93.7% | 180% | 117% | 109% | 237% | 66.4% | 192% | 152% | 137% | 193% | 175% | 98.5% | 107% | 210% | 92.5% |
| CS(=O)(=O)c1ccc(C(=O)Nc2ccc(Cl)c(-c3ccccn3)c2)c(Cl)c1 [vismodegib] + Cn1c(Nc2ccc(C(F)(F)F)cc2)nc2cc(Oc3ccnc(-c4ncc(C(F)(F)F)[nH]4)c3)ccc21 [CHIR265] (first compound 1 µM, partner dose 0.08 µM) | 1530% | 419% | 110% | 242% | 80% | 153% | 102% | 104% | 138% | 229% | 112% | 221% | 111% | 94.9% | 35.6% | 70.4% | 87.8% | 158% | 38.8% |
| CCCCCCCCc1ccc(CCC(N)(CO)CO)cc1 [fingolimod] + C=C(c1ccc(C(=O)O)cc1)c1cc2c(cc1C)C(C)(C)CCC2(C)C [Bexarotene] (first compound 2 µM, partner dose 2 µM) | 201% | 91.3% | 78% | 80.7% | 74.2% | 132% | 95.1% | 64.4% | 226% | 128% | 97.6% | 44.6% | 109% | 119% | 45.5% | 87% | 194% | 124% | 87.2% |
| C[C@@H](N)c1ccc(C(=O)Nc2ccnc3[nH]ccc23)cc1 + NC(=O)c1ccc(N(C(N)=O)c2c(F)cccc2F)nc1-c1ccc(F)cc1F [VX702] (first compound 0.4 µM, partner dose 0.4 µM) | 98.5% | 86.6% | 77.4% | 149% | 77.2% | 57.2% | 103% | 168% | 129% | 164% | 151% | 126% | 117% | 163% | 220% | 64.2% | 83.5% | 114% | 80.2% |
| C[C@@H](N)c1ccc(C(=O)Nc2ccnc3[nH]ccc23)cc1 + O=C(O)c1ccc2c(c1)nc(Nc1cccc(Cl)c1)c1ccncc12 [CX4945] (first compound 0.4 µM, partner dose 0.4 µM) | 119% | 103% | 162% | 134% | 81.9% | 169% | 166% | 188% | 219% | 326% | 76.7% | 58.9% | 124% | 168% | 30% | 65.3% | 153% | 81.2% | 77.6% |
| NC(=O)c1ccc(N(C(N)=O)c2c(F)cccc2F)nc1-c1ccc(F)cc1F + Clc1ccc(Nc2nnc(Cc3ccncc3)c3ccccc23)cc1 [vatalanib] (first compound 0.4 µM, partner dose 2 µM) | 104% | 112% | 97.7% | 193% | 72.4% | 64.7% | 102% | 110% | 87.5% | 26.7% | 64% | 102% | 97.9% | 44.8% | 46.3% | 65.6% | 98.5% | 99.9% | 81.8% |
| C[C@@H](N)c1ccc(C(=O)Nc2ccnc3[nH]ccc23)cc1 + CS(=O)(=O)c1ccc(C(=O)Nc2ccc(Cl)c(-c3ccccn3)c2)c(Cl)c1 [vismodegib] (first compound 0.4 µM, partner dose 1 µM) | 84.6% | 120% | 300% | 198% | 91.9% | 107% | 133% | 1160% | 120% | 346% | 110% | 44.2% | 75% | 76.6% | 437% | 63% | 112% | 63.1% | 373% |
| COc1ccc(C2=N[C@@H](c3ccc(Cl)cc3)[C@@H](c3ccc(Cl)cc3)N2C(=O)N2CCNC(=O)C2)c(OC(C)C)c1 [Nutlin-3] + C=C(c1ccc(C(=O)O)cc1)c1cc2c(cc1C)C(C)(C)CCC2(C)C [Bexarotene] (first compound 0.1 µM, partner dose 2 µM) | 124% | 169% | 72.5% | 57.8% | 39.7% | 114% | 118% | 120% | 129% | 76.1% | 48.3% | 63.4% | 57.5% | 144% | 176% | 75.7% | 180% | 146% | 71.3% |
| CC1(C)CCC(c2ccc(Cl)cc2)=C(CN2CCN(c3ccc(C(=O)NS(=O)(=O)c4ccc(N[C@H](CCN5CCOCC5)CSc5ccccc5)c(S(=O)(=O)C(F)(F)F)c4)cc3)CC2)C1 + COc1ccc(C2=N[C@@H](c3ccc(Cl)cc3)[C@@H](c3ccc(Cl)cc3)N2C(=O)N2CCNC(=O)C2)c(OC(C)C)c1 [Nutlin-3] (first compound 0.4 µM, partner dose 0.1 µM) | 25.6% | 334% | 145% | 321% | 347% | 340% | 507% | 384% | 425% | 193% | 323% | 241% | 137% | 186% | 88.7% | 81.2% | 125% | 201% | 89.9% |
| NC(=O)c1ccc(N(C(N)=O)c2c(F)cccc2F)nc1-c1ccc(F)cc1F + COc1ccc(Cl)c(Nc2nc3ccccc3nc2NS(=O)(=O)c2cccc(NC(=O)C(C)(C)N)c2)c1 [XL147] (first compound 0.4 µM, partner dose 0.8 µM) | 63.4% | 82.3% | 147% | 223% | 71.9% | 98.7% | 111% | 76.9% | 139% | 70.6% | 104% | 73.2% | 157% | 203% | 172% | 44.7% | 236% | 109% | 122% |
| CCN(CC)CCNC(=O)c1c(C)[nH]c(/C=C2\C(=O)Nc3ccc(F)cc32)c1C [sunitinib] + O=C(O)[C@@H]1[O][Sb](=[O])([O][Sb]2(=[O])[O][C@H]([C@H](O)CO)[C@H](O)[C@H](C(=O)O)[O]2)[O][C@H]([C@H](O)CO)[C@@H]1O [stibogluconate] (first compound 0.4 µM, partner dose 2 µM) | 97% | 84.4% | 75.5% | 125% | 198% | 81.5% | 172% | 128% | 118% | 64.2% | 63.4% | 84.9% | 54.8% | 183% | 58.8% | 59.4% | 97.5% | 83.8% | 36.2% |
| C[C@@H](N)c1ccc(C(=O)Nc2ccnc3[nH]ccc23)cc1 + CCCCCCCCc1ccc(CCC(N)(CO)CO)cc1 [fingolimod] (first compound 0.4 µM, partner dose 2 µM) | 87.9% | 30% | 107% | 178% | 92.1% | 62.6% | 105% | 81.3% | 161% | 54.1% | 118% | 133% | 140% | 133% | 27.9% | 192% | 99.3% | 46.6% | 202% |

Fetched one by one from above (two):

| Structure (SMILES) | cleaved PARP positive nuclei fraction (501Mel) | cleaved PARP positive nuclei fraction (A101D) | cleaved PARP positive nuclei fraction (A2058) | cleaved PARP positive nuclei fraction (A375) | cleaved PARP positive nuclei fraction (C32) | cleaved PARP positive nuclei fraction (CBRC008) | cleaved PARP positive nuclei fraction (CBRC014) | cleaved PARP positive nuclei fraction (CBRC016) | cleaved PARP positive nuclei fraction (CBRC017) | cleaved PARP positive nuclei fraction (CBRC034) | cleaved PARP positive nuclei fraction (COLO792) | cleaved PARP positive nuclei fraction (COLO800) | cleaved PARP positive nuclei fraction (COLO829) | cleaved PARP positive nuclei fraction (G361) | cleaved PARP positive nuclei fraction (IPC-298) | cleaved PARP positive nuclei fraction (IST-MEL1) | cleaved PARP positive nuclei fraction (LB2518-MEL) | cleaved PARP positive nuclei fraction (LOXIMVI) | cleaved PARP positive nuclei fraction (MEL-HO) |
| --- | --- | --- | --- | --- | --- | --- | --- | --- | --- | --- | --- | --- | --- | --- | --- | --- | --- | --- | --- |
| CCN(CC)CCNC(=O)c1c(C)[nH]c(/C=C2\C(=O)Nc3ccc(F)cc32)c1C [sunitinib] + Nc1ncn([C@H]2C[C@H](O)[C@@H](CO)O2)c(=O)n1 [decitabine] (first compound 0.4 µM, partner dose 0.1 µM) | 109% | 121% | 292% | 261% | 93.7% | 180% | 117% | 109% | 237% | 66.4% | 192% | 152% | 137% | 193% | 175% | 98.5% | 107% | 210% | 92.5% |
| C[C@@H](N)c1ccc(C(=O)Nc2ccnc3[nH]ccc23)cc1 + CCCCCCCCc1ccc(CCC(N)(CO)CO)cc1 [fingolimod] (first compound 0.4 µM, partner dose 2 µM) | 87.9% | 30% | 107% | 178% | 92.1% | 62.6% | 105% | 81.3% | 161% | 54.1% | 118% | 133% | 140% | 133% | 27.9% | 192% | 99.3% | 46.6% | 202% |
